The full ranking holds about 33,000 sequences; the median of “E-score (-0.5 to 0.5)” is about -8e-05, and the highest 2% start at about 0.23. This is one part of the list.
Target: T1, Nrg2 (UniProt P38082)
T1 sequence: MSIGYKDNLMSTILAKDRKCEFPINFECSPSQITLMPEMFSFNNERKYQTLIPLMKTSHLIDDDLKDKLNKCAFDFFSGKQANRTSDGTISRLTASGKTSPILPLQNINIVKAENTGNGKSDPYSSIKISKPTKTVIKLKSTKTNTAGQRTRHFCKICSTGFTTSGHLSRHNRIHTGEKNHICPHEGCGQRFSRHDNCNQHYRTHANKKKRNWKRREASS
Test: PBM E-score (8-mer binding enrichment) (E-score (-0.5 to 0.5)); higher = stronger / more preferred TF binding
Settings: protein concentration: 100 nM; construct: GST-full length
Experimental: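 Universal 'all 10-mer' protein binding microarrays (Agilent AMADID 015681) probed with GST-tagged S. cerevisiae TFs (full-length or DBD) made by in vitro transcription/translation (PURExpress), about 100-200 nM. Bound TF was detected with fluorescent anti-GST. Each ungapped 8-mer (which stands for itself and its reverse complement) is scored by the PBM enrichment score (E-score), a modified Wilcoxon-Mann-Whitney statistic from -0.5 to +0.5, computed with the Universal PBM Analysis Suite. Scale: above 0.35 generally sequence-specific binding.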

In order of rising “PBM E-score” value:
1. CCGTAACG  -0.334
2. AGGACCTG  -0.328
3. CCGCCTGC  -0.288
4. GGGGGAGA  -0.285
5. CTTGACTC  -0.268
6. AGGAAGGA  -0.261
7. GGAGAGCC  -0.257
8. GCTGTAAA  -0.247
9. GGTCTTCA  -0.244
10. AGCGCCTC  -0.231
11. GCCAAGTA  -0.23
12. AACGTGTC  -0.199
13. AAATGGCC  -0.173
14. AACACCCA  -0.173
15. CTGGCGGA  -0.16
16. AGGACGGC  -0.157
17. ACAGACGG  -0.155
18. AGTCCACA  -0.155
19. ACAGTCGT  -0.15
20. GACAATGA  -0.149
21. ACGGGGTA  -0.133
22. CTAGCCCA  -0.128
23. CCGACTTC  -0.128
24. GCTAGGCA  -0.128
25. ATCCTGCC  -0.125
26. TCGAGTCA  -0.119
27. CTACCACA  -0.118
28. AGCCGATA  -0.115
29. CCGTCTGA  -0.111
30. TAGAAACA  -0.107
31. TCTAGCCA  -0.106
32. CCGGCAGC  -0.103
33. ACAATAGC  -0.0896
34. CACCGCCC  -0.0826
35. CAGGACAC  -0.0795
36. ATGTTGGG  -0.0766
37. AAGCGACT  -0.0729
38. ACTCCGGG  -0.0705
39. AGTTCAGA  -0.0668
40. GAGTGCCA  -0.0639
41. CGCGAGTC  -0.0622
42. AGTCGTGG  -0.0598
43. TTACAGAA  -0.0591
44. GCTCAACA  -0.0542
45. CGAGTGTA  -0.0541
46. CTACGCAG  -0.0528
47. CCATGAAG  -0.0522
48. AGTGGCTC  -0.0453
49. AGCCGCGG  -0.0419
50. CACTTCCA  -0.0401
51. ACATTGCG  -0.0399
52. TGCGTTAA  -0.0371
53. ACGGCGGA  -0.0346
54. AACAGTCG  -0.0342
55. CATCTGTA  -0.0324
56. CACGAAGC  -0.0323
57. ACGTTGGG  -0.0242
58. GCAAACCC  -0.0242
59. ATGAGGCC  -0.0241
60. AGCACGTC  -0.0238
61. CCGTTTGA  -0.0238
62. ACTATTGC  -0.0214
63. ATAGACGA  -0.0209
64. GATATTGA  -0.0137
65. ACTTACGG  -0.0136
66. AACTGAAC  -0.0117
67. CTTGCTGA  -0.00707
68. CGATGACA  -0.0052
69. CTACAACA  -0.00372
70. AGGTACAG  -0.00294
71. GCTTACAC  -0.00254
72. CTAGGACA  -0.00109
73. AAGCACAG  -0.00064
74. CCGAGGAC  0.00443
75. AAGACTCT  0.00455
76. CAGATGTA  0.00849
77. GAATTTAA  0.00891
78. CGCGGCAC  0.00895
79. CCCTTCGC  0.00935
80. TACAGCAA  0.0164
81. GAGGGAAC  0.018
82. GCGCTGTA  0.0181
83. CGTCTGGC  0.0181
84. AACAACCG  0.021
85. GTCGCCAA  0.0214
86. CCATAGAA  0.0258
87. CCTATAGG  0.0261
88. GCAGCCGA  0.0266
89. GTAAGGGA  0.0285
90. AACATCAC  0.0311
91. GTGGCGAA  0.0352
92. CACGGTTA  0.0385
93. AAGCTTCA  0.0391
94. ACTTGCCT  0.0426
95. GTGCGGCA  0.0438
96. AGCAGCGA  0.0439
97. CTTAATCA  0.044
98. AGGATGTC  0.0442
99. ATCAGCTA  0.0452
100. AAACGGGT  0.0461
101. ACGGTATA  0.0462
102. AGTTCCGA  0.0484
103. CGGGTTCA  0.0522
104. GGTTGTCA  0.0525
105. CATAAAAC  0.0525
106. ATAGAGAT  0.0546
107. TGCTGACA  0.0555
108. AGGACCTC  0.0593
109. GAAACGTA  0.0595
110. ATACACAC  0.0606
111. ACGACATA  0.0628
112. GCGCGCCC  0.0648
113. ATCGCAGC  0.065
114. TGCATAAA  0.0654
115. CACCAACA  0.0656
116. CAAAGGGA  0.066
117. ATTCGACA  0.0685
118. CCGCTCAC  0.0692
119. ACAGTATG  0.0729
120. CATGGCGA  0.0732
121. CCGGGCCC  0.0831
122. ACTTCGTC  0.0846
123. GGGGATAA  0.0856
124. ATCAACGA  0.0856
125. TCAGGAGA  0.0861
126. GAGGTAAA  0.0865
127. AAGTGAAA  0.0897
128. GGAATCGA  0.0921
129. GCATTTGA  0.0928
130. AGGCTCCG  0.0995
131. ACACGGAT  0.105
132. CCACTCAA  0.106
133. GAACAGCA  0.108
134. ACACCTTC  0.115
135. GCTGTGGA  0.117
136. AGTACCAA  0.117
137. GATGCGAC  0.117
138. GTTTCCCA  0.118
139. CAAATTCC  0.121
140. AACATTAT  0.122
141. AACGTTGC  0.123
142. CGGGTTCC  0.125
143. AAAATTCC  0.126
144. ACCCCACT  0.131
145. GGAACAAC  0.133
146. CGCTCACA  0.134
147. ACTTAAGA  0.135
148. CGCAAAAA  0.141
149. TCACAACA  0.142
150. GTATCACA  0.146
151. GCACGAAA  0.153
152. GCGCACTA  0.158
153. AAGAACTA  0.161
154. AAAGCAAC  0.162
155. ATTCGTGA  0.163
156. GGTCTGAA  0.165
157. ATCATATC  0.169
158. CATATAAC  0.172
159. AAACGGGG  0.178
160. CCAGCTGA  0.179
161. AAATGTAT  0.185
162. GAAACATA  0.186
163. TATAATCA  0.202
164. CAAGCCGA  0.203
165. CAAGAATC  0.203
166. CGCTACTA  0.234
167. AACCCTTA  0.235
168. ATGACAAC  0.239
169. ACAATACT  0.241
170. ATATGACA  0.244
171. AAATATAT  0.257
172. GAACAAAC  0.323
